Library screening results

From ChEMBL document CHEMBL3988442, “University of Dundee, Small-Polar-MMV Screening Library” (2021).

Mtb growth Cornell: 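Whole-cell assay for inhibitors of Mycobacterium tuberculosis growth, labelled Cornell in the record; the read-out is not stated. The concentration is filed as 10 mM, unlikely as a test dose, so the dose is not known. Higher means stronger inhibition (inferred from two other growth screens of the library). About 53,000 compounds were tested under these conditions; 1.7% (about 900) showed 50% or more at least once.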
Mtb heat-shock: 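Assay on Mycobacterium tuberculosis, filed only as a heat shock assay from Cornell; the read-out is not stated. The concentration is filed as 10 mM, unlikely as a test dose, so the dose is not known. Direction is inferred from retests: higher values go with stronger inhibition. Size under these conditions: about 69,000 compounds, about 930 of them at 50% or above in at least one test.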

Each number is a percent effect as filed. How 0% and 100% were set is not recorded. Most values in the screen are low, and negative values occur. The compounds are a random part of those screened. A dash means the value is not listed here; it may have been measured.

| # | SMILES | Mtb growth Cornell | Mtb heat-shock |
|---|---|---|---|
| 1 | `COC(=O)N1CCCN(C(=O)c2cccc3cccnc23)CC1` | -46.29% | 18.67% |
| 2 | `Cc1cc(C)cc(C(=O)Nc2ccc(CC3CC(=O)NC3=O)cc2)c1` (stereo unspecified) | -5.85% | 3.621% |
| 3 | `O=C(c1cc[nH]n1)N1CCCC(c2cccc(-n3ccnc3)n2)C1` (stereo unspecified) | - | 15.29% |
| 4 | `Cc1cc(Br)cnc1NCCN1CCC(N(C)C)CC1` | 21.05% | -5.516% |
| 5 | `Cc1ccn2cc(C(=O)N3CCCC3c3c(C)nn(C)c3C)nc2c1` (stereo unspecified) | - | -5.163% |
| 6 | `CCCc1cc(=O)[nH]c2nnc(SCC(C)=O)n12` | -6.588% | -4.335% |
| 7 | `CN(Cc1ccsc1)C(=O)c1cccc(F)c1` | 4.48% | -15.91% |
| 8 | `Cc1cc(C2CCCN(CC(=O)N3CCc4ccccc43)C2)n[nH]1` (stereo unspecified) | -21.41% | -11.71% |
| 9 | `Cc1csc(C2(NCc3ccc(OCC(F)F)cc3)CCCC2)n1` | -2.1% | -11.85% |
| 10 | `CC1CN(C(=O)CCc2cc(Br)cs2)CCO1` (stereo unspecified) | - | 4.836% |
| 11 | `[H][C@@]12CCN(C(=O)Cc3cccc(F)c3)C[C@@]1([H])O[C@H](c1noc(C)n1)C2` | 16.61% | 10.46% |
| 12 | `CC(C)NC(=O)N1CCN(C(=O)N(C)C)CC2(CC(=O)N(C)C2)C1` (stereo unspecified) | 18.12% | -7.198% |
| 13 | `O=C(C1CCOC1)N1CC[C@@H](O)[C@@H]1Cc1ccccc1` (stereo partly specified) | -6.656% | -37.74% |
| 14 | `[H][C@@]12OCCN(C(=O)c3ccc(C)o3)[C@@]1([H])CC[C@H]2OCC1CCOCC1` | - | -8.409% |
| 15 | `CC(NC(=O)NCc1cccc(N2CCCC2=O)c1)c1ccccc1` (stereo unspecified) | - | -12.28% |
| 16 | `CC(NC(=O)N1CCN(c2ccccc2O)CC1)c1nncn1C` (stereo unspecified) | -0.605% | -10.4% |
| 17 | `COCCOc1ccc(NC(=O)N2CCOC(C(N)=O)C2)cc1F` (stereo unspecified) | -7.665% | -13.07% |
| 18 | `CCc1nc(CN(C)CC(=O)OC(C)(C)C)cs1` | -3.934% | 4.567% |
| 19 | `Cc1nc(C)n(CCC(=O)N2CCc3ncc(Cl)cc3C2)n1` | -16.59% | -7.492% |
| 20 | `Cc1nc(CN2CCCC(Cn3cc(CCO)nn3)C2)c2ccccn12` (stereo unspecified) | - | -13.38% |
| 21 | `[H][C@@]12CCC(=O)N(c3ccccc3)[C@]1([H])CCN2C(=O)C1CCOCC1` | 11.86% | -29.78% |
| 22 | `N#Cc1cn(C2CC2)c(=O)n(CC(O)c2ccc(Cl)cc2)c1=O` (stereo unspecified) | - | 19.17% |
| 23 | `Cc1ccc2c(c1)CN(C(=O)c1ccccc1F)C(CN(C)C)CO2.Cl` (stereo unspecified) | 19.76% | 5.115% |
| 24 | `O=C(c1cscn1)N1CCCCC1c1nc2cc(F)ccc2[nH]1` (stereo unspecified) | 30.4% | -16.45% |
| 25 | `CCCC(=O)N1CCc2c(CNS(C)(=O)=O)cncc2C1.Cl` | 14.53% | -24.21% |
| 26 | `Cc1nn(C)c(C)c1NC(=O)CCn1ncc2ccc(Cl)cc21` | - | -5.469% |
| 27 | `O=C(O)C(F)(F)F.O=C(O)C(F)(F)F.[H][C@@]12COC[C@H](C(=O)NCc3ccccn3)[C@]1([H])CN(c1ncccn1)C2` | 19.68% | -42.6% |
| 28 | `CC(C)OCCN1CCN(C(=O)c2cccc(CC#N)c2)CC1` | 20.28% | -8.167% |
| 29 | `CC(C)OCCCNC(=O)c1cccnc1N1CCOCC1` | -25.99% | -28.35% |
| 30 | `Cc1nc2n(n1)CC(NCc1nnc(C(C)(C)C)o1)CC2` (stereo unspecified) | 10.5% | 12.56% |
| 31 | `CCCNc1ncc(CN2CCOC(Cc3cccc(F)c3)C2)cn1` (stereo unspecified) | - | -15.02% |
| 32 | `Cc1nn(C)c(C)c1-c1ccc(=O)n(C(C)C(=O)NC2CCCC2)n1` (stereo unspecified) | -0.5567% | 8.68% |
| 33 | `CC(CNS(C)(=O)=O)Oc1cccc(Cl)c1` (stereo unspecified) | - | -32.38% |
| 34 | `Cn1nc2c(cc1=O)CN(c1ncnc3ccsc13)CC2` | - | 1.939% |
| 35 | `CN(CCNS(C)(=O)=O)CC(c1cccs1)N1CCOCC1` (stereo unspecified) | 22.96% | 3.954% |
| 36 | `Cc1occc1C(=O)N1CCC2(CCN(Cc3cccs3)C2)CC1.O=C(O)C(F)(F)F` | 1.867% | -42.16% |
| 37 | `CCN(C)CC1CCN(C(=O)Nc2ccc(-c3csnn3)cc2)C1` (stereo unspecified) | - | -10.85% |
| 38 | `CCc1nc(NCc2ccccn2)c2c(n1)c(C)nn2C` | -25.38% | -15.98% |
| 39 | `CC(C)(C)OC(=O)N1CCC[C@H](NCC2=CCCOC2)C1` | 18.61% | 3.875% |
| 40 | `O=C(O)C(F)(F)F.O=C(O)C(F)(F)F.[H][C@@]12COC[C@]1(C(=O)NCc1ccccn1)CN(Cc1scnc1C)C2` | 34.64% | 3.372% |
| 41 | `CN1CCN(c2cc(CNCc3cccc4c3OCO4)ccn2)CC1` | 9.462% | -29.28% |
| 42 | `COc1ccc(OC2CCN(C(=O)CCc3n[nH]c(C)n3)CC2)cc1` | - | -1.412% |
| 43 | `CCc1nc(C)cc(N2CCCC(C(=O)c3ccc(OC)cc3C)C2)n1` (stereo unspecified) | -3.086% | -6.091% |
| 44 | `CSCCC1c2nc[nH]c2CCN1Cc1ccccc1C#N` (stereo unspecified) | 19.15% | 12.31% |
| 45 | `Cc1ccc(C(=O)N2CCCCC2CNC(N)=O)s1` (stereo unspecified) | - | -25.36% |
| 46 | `Cc1cccc(C(=O)Oc2cc(=O)n3cccc(C)c3n2)c1` | 44.47% | -10.37% |
| 47 | `COCC1(NC(=O)C(c2ccc(F)cc2)N(C)C)CCCC1` (stereo unspecified) | 11.27% | -4.656% |
| 48 | `CCC1CCCCN1C(=O)c1ccc2[nH]nnc2c1` (stereo unspecified) | 17.83% | 4.818% |
| 49 | `Cc1nc(COc2nc(C(C)C)no2)cs1` | 10.07% | -17.59% |
| 50 | `CCCNC(=O)c1cnc(N(C)C)nc1COC` | - | 9.121% |
| 51 | `CCCN1Cc2cc(Br)ccc2OCC1=O` | 16.74% | -19.07% |
| 52 | `O=C(c1ccc(-n2cccn2)nc1)N1CCC(Nc2cccnn2)CC1` | - | -1.412% |
| 53 | `CCc1nc(N)sc1C(=O)N1CCCC(COc2cccc(C)c2)C1` (stereo unspecified) | 1.837% | -12.61% |
| 54 | `O=C1CN(C(=O)C2CCCCC2)CC(O)CN1Cc1ccc(Cl)cc1` (stereo unspecified) | 0.4916% | 44.59% |
| 55 | `O=C(O)C(F)(F)F.[H][C@@]12COC[C@]1([H])[C@@H](OCCN(C)C)CN2C(=O)c1cccs1` | -33.07% | -19.18% |
| 56 | `COc1nccc(C(F)(F)F)c1C(=O)O` | -6.432% | -2.919% |
| 57 | `COCc1nc(N(C)C)ncc1C(=O)Nc1cc(C)cc(C)c1` | - | -11.43% |
| 58 | `CCn1nc(CC(C)C)cc1C(=O)N1C[C@H](O)[C@@H](N2CCCCC2)C1` | -2.306% | -4.417% |
| 59 | `COc1cccc2c(C)c(C(=O)N3CCNCC3C(N)=O)[nH]c12.Cl` (stereo unspecified) | 1.428% | -6.521% |
| 60 | `COCCC(=O)N1CCC2(CC1)CN(S(C)(=O)=O)Cc1ccccc1O2` | 12.74% | 9.819% |
| 61 | `O=C1CCC(C(=O)Nc2cnn(-c3ccccc3Br)c2)N1` (stereo unspecified) | -7.651% | -12.48% |
| 62 | `CCC(C)NC(=O)CS(=O)(=O)Cc1nc(-c2cccs2)no1` (stereo unspecified) | 28.32% | 65.94% |
| 63 | `COc1ccc(Cl)cc1CN(C)CC(=O)/N=c1\cc[nH]n1C(C)C1CC1` (stereo unspecified) | 3.461% | -11.55% |
| 64 | `Cc1ccc(S(=O)(=O)Nc2ccc(-n3nnn(C)c3=O)cc2)cc1` | 27.31% | 1.322% |
| 65 | `Cc1nn2cc(CCNC(=O)c3cc(C(C)C)no3)nc2s1` | -51.71% | -14.31% |
| 66 | `Cc1cc(C)n(C2CN(Cc3ccc(C(=O)N4CCCC4)cc3)C2)n1` | - | -13.85% |
| 67 | `CC(=O)Nn1c(C)cc(CN2CCC(C(=O)N3CCCC3)CC2)c1C` | - | 23.53% |
| 68 | `Cn1ncc2c1NC(=O)CC2c1cc2c(cc1Cl)OCO2` (stereo unspecified) | - | 2.678% |
| 69 | `CNC(=O)[C@@H]1C[C@H](N)CN1Cc1cc2cc(OC)ccc2nc1O` | -1.459% | 26.18% |
| 70 | `Cc1ccc(C2(CN3CCN(Cc4cnc(C)n4C)CC3)CC2)cc1.Cl` | -5.859% | -8.472% |
| 71 | `CN1CCCC(c2cccc(CCC(=O)NCc3ccccn3)n2)C1` (stereo unspecified) | -6.846% | -5.474% |
| 72 | `COc1ccc(F)c(F)c1CN1CC(=O)N(c2ccccc2C)CC1C` (stereo unspecified) | 25.54% | 31.29% |
| 73 | `[H][C@@]12CN(Cc3ccccn3)C[C@]1([H])OCCN2CC1CCCO1` (stereo partly specified) | -8.263% | 5.444% |
| 74 | `CN(CC1CCCCC1)C(=O)c1ccc(-n2ncc(C#N)c2N)cc1` | 26.31% | 12.45% |
| 75 | `CN1CC[C@]2(CN(CC3CCOC3)C[C@H]2c2ccccc2)C1=O.O=C(O)C(F)(F)F` (stereo partly specified) | -25.66% | -18.11% |